# Test results from the supplement of paper PMC8728848.
# The other results are listed elsewhere or left out.
# B1: YghJ (Escherichia coli), E3PJ90 (protein)
# chain: MNKKFKYKKSLLAAILSATLLAGCDGGGSGSSSDTPPVDSGTGSLPEVKPDPTPNPEPTPEPTPDPEPTPEPIPDPEPTPEPEPEPVPTKTGYLTLGGSQRVTGATCNGESSDGFTFKPGEDVTCVAGNTTIATFNTQSEAARSLRAVEKVSFSLEDAQELAGSDDKKSNAVSLVTSSNSCPANTEQVCLTFSSVIESKRFDSLYKQIDLAPEEFKKLVNEEVENNAATDKAPSTHTSPVVPVTTPGTKPDLNASFVSANAEQFYQYQPTEIILSEGRLVDSQGYGVAGVNYYTNSGRGVTGENGEFSFSWGEAISFGIDTFELGSVRGNKSTIALTELGDEVRGANIDQLIHRYSTTGQNNTRVVPDDVRKVFAEYPNVINEIINLSLSNGATLGEGEQVVNLPNEFIEQFNTGQAKEIDTAICAKTDGCNEARWFSLTTRNVNDGQIQGVINKLWGVDTNYKSVSKFHVFHDSTNFYGSTGNARGQAVVNISNAAFPILMARNDKNYWLAFGEKRAWDKNELAYITEAPSIVRPENVTRETASFNLPFISLGQVGDGKLMVIGNPHYNSILRCPNGYSWNGGVNKDGQCTLNSDPDDMKNFMENVLRYLSNDRWLPDAKSSMTVGTNLETVYFKKHGQVLGNSAPFAFHKDFTGITVKPMTSYGNLNPDEVPLLILNGFEYVTQWGSDPYSIPLRADTSKPKLTQQDVTDLIAYMNKGGSVLIMENVMSNLKEESASGFVRLLDAAGLSMALNKSVVNNDPQGYPDRVRQRRSTPIWVYERYPAVDGKPPYTIDDTTKEVIWKYQQENKPDDKPKLEVASWQEEVEGKQVTQFAFIDEADHKTPESLAAAKQRILDAFPGLEVCKDSDYHYEVNCLEYRPGTDVPVTGGMYVPQYTQLDLSADTAKAMLQAADLGTNIQRLYQHELYFRTNGRQGERLNSVDLERLYQNMSVWLWNETKYRYEEGKEDELGFKTFTEFLNCYTNNAYVGTQCSAELKKSLIDNKMIYGEESSKAGMMNPSYPLNYMEKPLTRLMLGRSWWDLNIKVDVEKYPGVVNTNGETVTQNINLYSAPTKWFAGNMQSTGLWAPAQQEVSIESKSTVPVTVTVALADDLTGREKHEVSLNRPPRVTKTYDLKANDKVTFKVPYGGLIYIKGDSKEVQSADFTFTGVVKAPFYKDGKWQHDLNSPAPLGELESASFVYTTPKKNLNASNYTGGLEQFANDLDTFASSMNDFYGRDSEDGKHRMFTYKNLPGHKHRFANDVQISIGDAHSGYPVMNSSFSPNSTTLPTTPLNDWLIWHEVGHNAAETPLTVPGATEVANNVLALYMQDRYLGKMNRVADDITVAPEYLEESNGQAWARGGAGDRLLMYAQLKEWAEKNFDIKKWYPDGTPLPEFYSEREGMKGWNLFQLMHRKARGDEVSNDKFGGKNYCAESNGNAADTLMLCASWVAQTDLSEFFKKWNPGANAYQLPGASEMSFEGGVSQSAYNTLASLDLPKPEQGPETINQVTEHKMSAE
# Legend:
# Experiment in all cases: glycan array binding signal (z-score within array); higher = stronger binding
# Details in all cases: glycan notation: IUPAC condensed, linker removed
# Neu5Ac(a2-8)Neu5Ac = molecular target: Neu5Ac(a2-8)Neu5Ac
# Summary of the method: (§1)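 Negative Z-scores can be read as non-binding. The Z-score is calculated within each array and then averaged across arrays of one protein sequence at different concentrations or buffers and across linkers. Arrays, 3228 in all, were curated from the Consortium for Functional Glycomics database and kept only where the protein sequence was available.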
# [1] = molecular target: Neu5Ac(a2-8)Neu5Ac(a2-3)Gal(b1-3)GalNAc(b1-4)[Neu5Ac(a2-3)]Gal(b1-4)Glc
# Summary of the method: as §1
# [2] = molecular target: Neu5Ac(a2-8)Neu5Ac(a2-3)Gal(b1-3)GalNAc(b1-4)[Neu5Ac(a2-8)Neu5Ac(a2-3)]Gal(b1-4)Glc
# Summary of the method: as §1
# [3] = molecular target: Neu5Ac(a2-8)Neu5Ac(a2-3)Gal(b1-4)Glc
# Summary of the method: as §1
# [4] = molecular target: Neu5Ac(a2-8)Neu5Ac(a2-3)Gal(b1-4)GlcNAc
# Summary of the method: as §1
# [5] = molecular target: Neu5Ac(a2-8)Neu5Ac(a2-3)[Gal(b1-3)GalNAc(b1-4)]Gal(b1-4)Glc
# Summary of the method: as §1
# [6] = molecular target: Neu5Ac(a2-8)Neu5Ac(a2-3)[GalNAc(b1-4)]Gal(b1-4)Glc
# Summary of the method: as §1
# [7] = molecular target: Neu5Ac(a2-8)Neu5Ac(a2-8)Neu5Ac
# Summary of the method: as §1
# [8] = molecular target: Neu5Ac(a2-8)Neu5Ac(a2-8)Neu5Ac(a2-3)Gal(b1-4)Glc
# Summary of the method: as §1
# [9] = molecular target: Neu5Ac(a2-8)Neu5Ac(a2-8)Neu5Ac(a2-3)[Gal(b1-3)GalNAc(b1-4)]Gal(b1-4)Glc
# Summary of the method: as §1
# [10] = molecular target: Neu5Ac(a2-8)Neu5Ac(a2-8)Neu5Ac(a2-3)[GalNAc(b1-4)]Gal(b1-4)Glc
# Summary of the method: as §1
# [11] = molecular target: Neu5Ac(a2-8)Neu5Ac(a2-8)Neu5Ac(a2-8)Neu5Ac(a2-3)[GalNAc(b1-4)]Gal(b1-4)Glc
# Summary of the method: as §1
# [12] = molecular target: Neu5Ac(a2-8)Neu5Gc(a2-3)Gal(b1-4)GlcNAc
# Summary of the method: as §1
# [13] = molecular target: Neu5Ac(b2-6)Gal(b1-4)GlcNAc
# Summary of the method: as §1
# Neu5Ac(b2-6)GalNAc = molecular target: Neu5Ac(b2-6)GalNAc
# Summary of the method: as §1
# [14] = molecular target: Neu5Ac9Ac(a2-3)Gal(b1-3)GlcNAc
# Summary of the method: as §1
# [15] = molecular target: Neu5Ac9Ac(a2-3)Gal(b1-4)GlcNAc
# Summary of the method: as §1
# [16] = molecular target: Neu5Ac9Ac(a2-6)Gal(b1-4)GlcNAc
# Summary of the method: as §1
# [17] = molecular target: Neu5Gc(a2-3)Gal(b1-3)GlcNAc
# Summary of the method: as §1
# [18] = molecular target: Neu5Gc(a2-3)Gal(b1-3)[Fuc(a1-4)]GlcNAc
# Summary of the method: as §1
# Neu5Gc(a2-3)Gal(b1-4)Glc = molecular target: Neu5Gc(a2-3)Gal(b1-4)Glc
# Summary of the method: as §1
# [19] = molecular target: Neu5Gc(a2-3)Gal(b1-4)GlcNAc
# Summary of the method: as §1
# [20] = molecular target: Neu5Gc(a2-3)Gal(b1-4)GlcNAc(b1-3)Gal(b1-4)GlcNAc(b1-2)Man(a1-3)[Neu5Gc(a2-3)Gal(b1-4)GlcNAc(b1-3)Gal(b1-4)GlcNAc(b1-2)Man(a1-6)]Man(b1-4)GlcNAc(b1-4)GlcNAc
# Summary of the method: as §1
# [21] = molecular target: Neu5Gc(a2-3)Gal(b1-4)[Fuc(a1-3)]GlcNAc
# Summary of the method: as §1
# [22] = molecular target: Neu5Gc(a2-6)Gal(b1-4)GlcNAc
# Summary of the method: as §1
# Neu5Gc(a2-6)GalNAc = molecular target: Neu5Gc(a2-6)GalNAc
# Summary of the method: as §1
# [23] = molecular target: Neu5Gc(a2-8)Neu5Ac(a2-3)Gal(b1-4)GlcNAc
# Summary of the method: as §1
# [24] = molecular target: Neu5Gc(a2-8)Neu5Gc(a2-3)Gal(b1-4)GlcNAc
# Summary of the method: as §1
# [25] = molecular target: Neu5Gc(a2-8)Neu5Gc(a2-3)Gal(b1-4)GlcNAc(b1-3)Gal(b1-4)GlcNAc
# Summary of the method: as §1
# [26] = molecular target: Neu5Gc(a2-8)Neu5Gc(a2-6)Gal(b1-4)GlcNAc
# Summary of the method: as §1
# [27] = molecular target: Neu5Gc(b2-6)Gal(b1-4)GlcNAc
# Summary of the method: as §1
binder,measurement,setting,value
B1,glycan array binding signal (z-score),Neu5Ac(a2-8)Neu5Ac,-0.826
same,glycan array binding signal (z-score),[1],-1.39
same,glycan array binding signal (z-score),[2],-0.076
same,glycan array binding signal (z-score),[3],0.732
same,glycan array binding signal (z-score),[4],5.47
same,glycan array binding signal (z-score),[5],0.298
same,glycan array binding signal (z-score),[6],-0.46
same,glycan array binding signal (z-score),[7],-0.308
same,glycan array binding signal (z-score),[8],-0.39
same,glycan array binding signal (z-score),[9],0.361
same,glycan array binding signal (z-score),[10],0.228
same,glycan array binding signal (z-score),[11],-0.944
same,glycan array binding signal (z-score),[12],-0.939
same,glycan array binding signal (z-score),[13],0.893
same,glycan array binding signal (z-score),Neu5Ac(b2-6)GalNAc,-0.992
same,glycan array binding signal (z-score),[14],-0.281
same,glycan array binding signal (z-score),[15],0.565
same,glycan array binding signal (z-score),[16],-0.926
same,glycan array binding signal (z-score),[17],-0.507
same,glycan array binding signal (z-score),[18],-0.198
same,glycan array binding signal (z-score),Neu5Gc(a2-3)Gal(b1-4)Glc,0.39
same,glycan array binding signal (z-score),[19],2.24
same,glycan array binding signal (z-score),[20],1.61
same,glycan array binding signal (z-score),[21],0.314
same,glycan array binding signal (z-score),[22],-0.154
same,glycan array binding signal (z-score),Neu5Gc(a2-6)GalNAc,-0.149
same,glycan array binding signal (z-score),[23],0.009
same,glycan array binding signal (z-score),[24],0.084
same,glycan array binding signal (z-score),[25],0.005
same,glycan array binding signal (z-score),[26],-0.85
same,glycan array binding signal (z-score),[27],3.37

# Exported with tabs: part of the list above.
binder	measurement	setting	value
B1	glycan array binding signal (z-score)	[1]	-1.39
same	glycan array binding signal (z-score)	[7]	-0.308
